The source of these data is article PMC10603992, “Antimicrobial and Adjuvant Potencies of Di-n-alkyl Substituted Diazalariat Ethers” (Antibiotics, 2023).

This data set can be described thus: Complexation of antimicrobials by C12LE (NMR extraction). The class given is physicochemical. The conditions noted are these: CHCl3/CDCl3, (drug:C12LE), average of at least three experiments.

For the molecule `O=C(O)c1cn(C2CC2)c2cc(N3CCNCC3)c(F)cc2c1=O` [Ciprofloxacin, ciprofloxacin], the “Complexation ratio with C12LE” value is listed as 2.8.
